These are yes or no findings as the source states them, for the method shown. In cells and extracts the contact can be indirect. Some results given as binding are weak or reduced against the parent protein; the word gives no strength. Sequences can lack the tags named with a protein.
Target: T1, FLAG-FBXL4 (human) (UniProt Q9UKA2)
T1 sequence: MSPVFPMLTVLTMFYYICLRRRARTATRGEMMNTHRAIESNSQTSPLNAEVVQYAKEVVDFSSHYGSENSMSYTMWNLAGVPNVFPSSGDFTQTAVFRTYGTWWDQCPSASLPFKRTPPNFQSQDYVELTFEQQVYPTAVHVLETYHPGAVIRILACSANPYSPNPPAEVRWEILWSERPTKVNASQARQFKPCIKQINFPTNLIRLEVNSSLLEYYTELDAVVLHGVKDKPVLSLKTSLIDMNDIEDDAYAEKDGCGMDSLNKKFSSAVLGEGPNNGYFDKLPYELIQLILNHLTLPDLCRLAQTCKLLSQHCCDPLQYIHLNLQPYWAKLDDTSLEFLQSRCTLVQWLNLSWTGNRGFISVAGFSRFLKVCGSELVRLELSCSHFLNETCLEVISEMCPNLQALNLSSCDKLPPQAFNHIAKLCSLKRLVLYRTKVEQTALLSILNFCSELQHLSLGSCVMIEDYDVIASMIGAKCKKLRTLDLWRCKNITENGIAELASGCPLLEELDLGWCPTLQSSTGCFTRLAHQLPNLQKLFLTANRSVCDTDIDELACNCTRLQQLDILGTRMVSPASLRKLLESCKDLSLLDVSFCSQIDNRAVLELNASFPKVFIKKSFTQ
Experiment: co-IP; FLAG-FBXL4 as bait on anti-FLAG beads from transfected 293T or 293T PPTC7 KO cells; MLN4924 24 h where indicated; Tris-Triton lysis buffer; immunoblot

Chains of the proteins cited; added tags and fusions are not shown.
UniProt P63208: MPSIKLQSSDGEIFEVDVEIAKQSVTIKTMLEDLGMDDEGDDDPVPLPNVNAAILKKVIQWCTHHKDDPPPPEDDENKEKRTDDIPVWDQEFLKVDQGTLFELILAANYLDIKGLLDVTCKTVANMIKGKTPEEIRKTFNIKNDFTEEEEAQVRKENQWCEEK

SKP1 (endogenous) (from UniProt P63208 1-163)
binding: binds

— article PMC11316107
